{"sequences": {"note": "By UniProt entry, the sequences of proteins in these tests, tags left out.", "UniProt Q9H0K1, whole entry T96Q": "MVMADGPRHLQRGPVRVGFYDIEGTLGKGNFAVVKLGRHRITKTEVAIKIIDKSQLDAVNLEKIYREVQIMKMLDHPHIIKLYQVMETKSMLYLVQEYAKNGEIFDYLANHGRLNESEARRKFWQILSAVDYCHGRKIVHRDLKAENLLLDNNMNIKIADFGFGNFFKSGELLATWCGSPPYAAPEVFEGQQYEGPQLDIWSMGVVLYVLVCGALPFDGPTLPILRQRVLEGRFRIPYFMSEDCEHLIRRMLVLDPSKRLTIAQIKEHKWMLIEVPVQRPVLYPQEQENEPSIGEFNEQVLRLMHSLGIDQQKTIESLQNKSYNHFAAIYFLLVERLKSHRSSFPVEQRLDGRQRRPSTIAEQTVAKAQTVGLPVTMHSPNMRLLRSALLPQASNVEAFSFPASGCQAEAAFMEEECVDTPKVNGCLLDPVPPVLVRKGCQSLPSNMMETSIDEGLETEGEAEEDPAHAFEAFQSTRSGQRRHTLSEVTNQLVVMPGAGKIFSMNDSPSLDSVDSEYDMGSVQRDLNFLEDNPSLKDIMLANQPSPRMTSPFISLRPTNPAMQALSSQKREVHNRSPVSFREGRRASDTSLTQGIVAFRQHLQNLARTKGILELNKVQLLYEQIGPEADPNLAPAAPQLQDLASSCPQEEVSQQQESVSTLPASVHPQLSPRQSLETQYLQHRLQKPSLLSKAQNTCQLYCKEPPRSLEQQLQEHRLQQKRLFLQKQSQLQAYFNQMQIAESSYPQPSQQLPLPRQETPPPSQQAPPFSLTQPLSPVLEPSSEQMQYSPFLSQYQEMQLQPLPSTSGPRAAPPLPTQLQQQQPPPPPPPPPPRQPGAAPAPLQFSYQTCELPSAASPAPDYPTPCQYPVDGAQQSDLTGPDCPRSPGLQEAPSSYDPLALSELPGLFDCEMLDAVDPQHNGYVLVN"}, "source": "patent US10233157B2", "about": "“SIK inhibitor for use in a method of treating an inflammatory and/or immune disorder” (Dana-Farber Cancer Institute, Inc., priority 2012, dated 2019)", "molecular_target": "T1, SIK2[T96Q] mutant (Homo sapiens, UniProt Q9H0K1, T96Q)", "T1 construct": "GST; made in house; host or cells: HEK293 cells", "assay": "IC50 curves against SIK2 gatekeeper mutants", "format": "biochemical", "details": "mutant versus WT", "note": "Some results were stated once for a whole list of compounds, not compound by compound.", "data": [{"smiles": "COc1ccc(N(C(=O)Oc2c(C)cccc2C)c2ccnc(Nc3ccc(N4CCN(C)CC4)cc3)n2)c(OC)c1", "note": "[KIN112]", "values": [{"measurement": "loss of sensitivity of SIKs on mutation of the gatekeeper threonine to a residue with a larger side chain", "result": "100-1000 fold"}]}]}
